Measured values published in article PMC6375729.
These are yes or no findings as the source states them, for the method shown. In cells and extracts the contact can be indirect. Here binding means that the protein was enriched with, or labelled near, the bait; the list need not be complete.

Protein sequences, listed by entry. Tags and fused reporters are not part of them. Lines headed by an entry give the natural chain unless they say otherwise; changes in a name come on top.
UniProt Q3UQU0: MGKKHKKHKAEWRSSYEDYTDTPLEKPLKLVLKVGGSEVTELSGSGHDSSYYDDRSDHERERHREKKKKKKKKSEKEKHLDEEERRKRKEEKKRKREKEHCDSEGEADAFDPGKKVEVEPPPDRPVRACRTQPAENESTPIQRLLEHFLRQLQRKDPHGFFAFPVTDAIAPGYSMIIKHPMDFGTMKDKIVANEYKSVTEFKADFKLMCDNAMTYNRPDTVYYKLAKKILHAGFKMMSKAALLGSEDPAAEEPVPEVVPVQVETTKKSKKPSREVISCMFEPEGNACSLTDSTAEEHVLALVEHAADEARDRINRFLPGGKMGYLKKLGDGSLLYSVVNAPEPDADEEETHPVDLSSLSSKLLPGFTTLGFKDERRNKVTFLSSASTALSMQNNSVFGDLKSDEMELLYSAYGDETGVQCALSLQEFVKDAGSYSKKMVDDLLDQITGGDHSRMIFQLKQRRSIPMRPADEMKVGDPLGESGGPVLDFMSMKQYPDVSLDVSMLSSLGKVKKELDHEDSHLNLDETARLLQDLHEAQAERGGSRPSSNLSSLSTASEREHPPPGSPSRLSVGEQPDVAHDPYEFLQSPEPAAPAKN
UniProt P25440: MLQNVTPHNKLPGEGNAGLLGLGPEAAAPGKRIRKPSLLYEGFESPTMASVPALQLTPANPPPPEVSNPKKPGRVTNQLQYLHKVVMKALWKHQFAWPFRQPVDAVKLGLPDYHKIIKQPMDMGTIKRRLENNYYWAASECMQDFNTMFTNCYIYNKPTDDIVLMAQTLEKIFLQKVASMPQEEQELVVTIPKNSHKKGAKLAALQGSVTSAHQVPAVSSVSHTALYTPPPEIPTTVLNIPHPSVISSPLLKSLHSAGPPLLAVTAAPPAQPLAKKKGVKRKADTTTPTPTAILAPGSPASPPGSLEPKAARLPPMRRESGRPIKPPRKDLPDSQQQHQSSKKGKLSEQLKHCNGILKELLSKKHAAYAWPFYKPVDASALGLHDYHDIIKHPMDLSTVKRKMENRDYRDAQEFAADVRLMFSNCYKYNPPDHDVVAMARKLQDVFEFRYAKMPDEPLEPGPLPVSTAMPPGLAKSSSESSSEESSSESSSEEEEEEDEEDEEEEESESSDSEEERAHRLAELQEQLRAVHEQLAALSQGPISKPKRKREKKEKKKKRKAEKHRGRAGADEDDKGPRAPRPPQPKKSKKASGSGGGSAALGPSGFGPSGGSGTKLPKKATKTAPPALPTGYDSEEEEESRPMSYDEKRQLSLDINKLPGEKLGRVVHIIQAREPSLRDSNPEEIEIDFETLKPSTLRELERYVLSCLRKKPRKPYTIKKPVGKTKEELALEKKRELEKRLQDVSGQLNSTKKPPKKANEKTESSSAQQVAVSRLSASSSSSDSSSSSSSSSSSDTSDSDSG
UniProt Q15059: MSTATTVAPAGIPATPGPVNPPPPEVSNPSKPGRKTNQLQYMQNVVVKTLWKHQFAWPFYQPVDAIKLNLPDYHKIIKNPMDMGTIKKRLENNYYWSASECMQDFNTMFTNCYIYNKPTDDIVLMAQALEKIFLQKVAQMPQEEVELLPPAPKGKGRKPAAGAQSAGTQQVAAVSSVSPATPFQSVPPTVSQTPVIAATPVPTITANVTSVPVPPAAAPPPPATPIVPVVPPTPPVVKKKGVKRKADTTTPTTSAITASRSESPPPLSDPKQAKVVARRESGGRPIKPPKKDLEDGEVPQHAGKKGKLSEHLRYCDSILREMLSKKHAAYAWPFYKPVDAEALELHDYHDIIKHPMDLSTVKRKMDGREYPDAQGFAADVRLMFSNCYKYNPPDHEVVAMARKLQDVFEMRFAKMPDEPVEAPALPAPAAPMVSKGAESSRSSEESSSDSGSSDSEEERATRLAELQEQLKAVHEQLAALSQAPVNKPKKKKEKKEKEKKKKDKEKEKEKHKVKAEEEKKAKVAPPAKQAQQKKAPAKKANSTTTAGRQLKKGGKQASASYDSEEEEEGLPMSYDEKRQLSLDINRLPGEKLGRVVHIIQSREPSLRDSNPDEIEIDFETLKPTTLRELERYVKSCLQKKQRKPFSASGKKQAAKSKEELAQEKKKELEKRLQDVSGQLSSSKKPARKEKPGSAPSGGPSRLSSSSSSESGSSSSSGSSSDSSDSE
UniProt Q9H8M2: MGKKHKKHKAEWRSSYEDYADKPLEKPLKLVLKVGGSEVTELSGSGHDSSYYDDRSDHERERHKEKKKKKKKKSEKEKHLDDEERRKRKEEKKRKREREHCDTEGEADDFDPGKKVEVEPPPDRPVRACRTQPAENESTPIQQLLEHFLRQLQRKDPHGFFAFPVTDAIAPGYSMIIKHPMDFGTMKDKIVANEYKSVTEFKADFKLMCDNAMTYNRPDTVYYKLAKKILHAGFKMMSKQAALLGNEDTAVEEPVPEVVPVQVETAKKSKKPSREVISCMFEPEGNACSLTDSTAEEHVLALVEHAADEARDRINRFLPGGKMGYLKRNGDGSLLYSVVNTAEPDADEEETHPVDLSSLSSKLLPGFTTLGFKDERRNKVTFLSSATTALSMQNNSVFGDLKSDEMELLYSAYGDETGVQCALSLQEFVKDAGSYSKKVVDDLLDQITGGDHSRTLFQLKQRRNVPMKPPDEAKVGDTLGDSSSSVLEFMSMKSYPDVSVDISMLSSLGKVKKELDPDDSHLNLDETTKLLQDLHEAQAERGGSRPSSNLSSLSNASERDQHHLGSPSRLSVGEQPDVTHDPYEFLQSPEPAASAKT
UniProt Q9HCK8: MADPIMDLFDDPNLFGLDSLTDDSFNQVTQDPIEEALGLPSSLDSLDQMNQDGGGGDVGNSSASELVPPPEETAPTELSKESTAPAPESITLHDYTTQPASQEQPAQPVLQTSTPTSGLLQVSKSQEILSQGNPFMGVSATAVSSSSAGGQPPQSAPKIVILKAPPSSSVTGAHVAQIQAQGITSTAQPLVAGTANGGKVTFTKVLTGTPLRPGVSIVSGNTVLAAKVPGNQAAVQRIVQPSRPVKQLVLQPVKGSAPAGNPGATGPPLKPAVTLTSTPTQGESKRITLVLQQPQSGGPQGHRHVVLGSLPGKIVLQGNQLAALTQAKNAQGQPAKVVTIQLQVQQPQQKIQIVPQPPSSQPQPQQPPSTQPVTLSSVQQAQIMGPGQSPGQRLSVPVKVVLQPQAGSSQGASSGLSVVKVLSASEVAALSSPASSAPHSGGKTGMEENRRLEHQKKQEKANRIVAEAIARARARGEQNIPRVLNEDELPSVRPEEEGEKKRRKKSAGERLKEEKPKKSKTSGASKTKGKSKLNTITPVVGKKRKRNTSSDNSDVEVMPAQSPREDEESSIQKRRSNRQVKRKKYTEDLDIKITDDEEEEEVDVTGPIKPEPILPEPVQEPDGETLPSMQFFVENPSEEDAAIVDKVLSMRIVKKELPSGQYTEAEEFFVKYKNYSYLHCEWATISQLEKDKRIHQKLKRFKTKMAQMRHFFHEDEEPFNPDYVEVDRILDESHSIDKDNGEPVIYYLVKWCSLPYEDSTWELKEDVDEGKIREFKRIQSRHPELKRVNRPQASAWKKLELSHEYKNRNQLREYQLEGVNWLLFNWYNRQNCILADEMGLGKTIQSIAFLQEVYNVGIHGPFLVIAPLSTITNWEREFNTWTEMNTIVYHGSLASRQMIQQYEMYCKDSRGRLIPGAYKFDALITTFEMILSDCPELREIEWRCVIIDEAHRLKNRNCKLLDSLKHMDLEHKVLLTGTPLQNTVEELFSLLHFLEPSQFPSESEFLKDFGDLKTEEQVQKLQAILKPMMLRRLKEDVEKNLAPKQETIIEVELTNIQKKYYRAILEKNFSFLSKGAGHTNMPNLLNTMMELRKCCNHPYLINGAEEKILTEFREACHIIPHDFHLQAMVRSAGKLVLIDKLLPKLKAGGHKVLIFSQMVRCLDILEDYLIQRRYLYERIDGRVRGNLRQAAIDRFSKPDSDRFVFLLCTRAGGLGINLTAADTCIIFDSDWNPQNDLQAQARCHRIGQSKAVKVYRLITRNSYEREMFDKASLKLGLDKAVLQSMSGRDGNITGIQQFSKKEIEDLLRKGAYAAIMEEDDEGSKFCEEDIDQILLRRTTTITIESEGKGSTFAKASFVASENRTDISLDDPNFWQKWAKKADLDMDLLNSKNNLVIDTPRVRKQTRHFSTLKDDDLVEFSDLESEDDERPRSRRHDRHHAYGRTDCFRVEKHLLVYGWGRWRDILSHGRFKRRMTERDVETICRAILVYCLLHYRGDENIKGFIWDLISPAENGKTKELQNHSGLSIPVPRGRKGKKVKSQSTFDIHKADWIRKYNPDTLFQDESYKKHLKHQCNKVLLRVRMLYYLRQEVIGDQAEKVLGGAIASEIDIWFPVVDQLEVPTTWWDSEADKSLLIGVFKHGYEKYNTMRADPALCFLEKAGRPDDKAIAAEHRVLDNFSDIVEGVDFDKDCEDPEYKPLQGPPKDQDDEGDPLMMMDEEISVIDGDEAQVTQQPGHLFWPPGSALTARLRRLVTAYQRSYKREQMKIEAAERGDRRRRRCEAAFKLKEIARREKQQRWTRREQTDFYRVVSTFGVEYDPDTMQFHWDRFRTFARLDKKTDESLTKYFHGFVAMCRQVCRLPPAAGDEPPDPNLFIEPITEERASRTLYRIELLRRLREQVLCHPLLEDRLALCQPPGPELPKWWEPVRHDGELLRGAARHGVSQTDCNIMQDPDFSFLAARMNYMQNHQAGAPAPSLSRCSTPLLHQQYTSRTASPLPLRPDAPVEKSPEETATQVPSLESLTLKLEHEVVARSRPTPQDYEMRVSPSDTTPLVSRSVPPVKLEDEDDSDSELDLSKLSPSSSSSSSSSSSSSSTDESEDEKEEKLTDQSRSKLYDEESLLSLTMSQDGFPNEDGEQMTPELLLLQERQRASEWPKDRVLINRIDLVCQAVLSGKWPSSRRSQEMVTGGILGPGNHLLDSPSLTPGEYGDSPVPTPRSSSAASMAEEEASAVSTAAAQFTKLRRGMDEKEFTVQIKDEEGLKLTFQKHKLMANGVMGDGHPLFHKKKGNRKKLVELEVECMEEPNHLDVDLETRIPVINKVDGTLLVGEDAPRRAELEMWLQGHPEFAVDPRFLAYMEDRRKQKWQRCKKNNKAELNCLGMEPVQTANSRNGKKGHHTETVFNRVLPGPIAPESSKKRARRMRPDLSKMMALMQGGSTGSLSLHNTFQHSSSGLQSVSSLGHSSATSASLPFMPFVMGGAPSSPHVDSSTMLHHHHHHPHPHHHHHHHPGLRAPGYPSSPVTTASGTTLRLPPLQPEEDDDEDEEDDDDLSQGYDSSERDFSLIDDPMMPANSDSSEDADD
UniProt Q96GM5: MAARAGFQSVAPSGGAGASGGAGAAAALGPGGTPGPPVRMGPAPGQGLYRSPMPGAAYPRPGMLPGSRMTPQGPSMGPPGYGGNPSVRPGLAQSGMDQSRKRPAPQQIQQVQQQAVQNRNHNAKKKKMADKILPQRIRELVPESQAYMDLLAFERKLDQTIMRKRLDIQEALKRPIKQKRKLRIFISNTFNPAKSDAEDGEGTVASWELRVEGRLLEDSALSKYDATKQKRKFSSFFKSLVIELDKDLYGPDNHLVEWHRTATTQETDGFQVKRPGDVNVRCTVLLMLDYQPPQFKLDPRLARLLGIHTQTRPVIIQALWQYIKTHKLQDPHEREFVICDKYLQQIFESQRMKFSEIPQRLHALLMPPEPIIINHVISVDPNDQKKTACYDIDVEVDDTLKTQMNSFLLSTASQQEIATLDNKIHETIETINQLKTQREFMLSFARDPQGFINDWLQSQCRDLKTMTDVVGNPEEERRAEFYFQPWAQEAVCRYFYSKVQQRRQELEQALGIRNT

Experiments:
[1] = target: 3xFLAG-BRD9 full length (not stated (UniProt entry of the human protein printed; a mouse Brd9 cDNA is listed)) (UniProt Q3UQU0); test: affinity purification with mass spectrometry; 3xFLAG-tagged BRD9 full length and deletion constructs expressed in HEK293 cells, anti-FLAG M2 beads, endogenous preys, SAINT FDR ≤ 1%
[2] = target: 3xFLAG-BRD9 1-100 (not stated (UniProt entry of the human protein printed; a mouse Brd9 cDNA is listed)) (UniProt Q3UQU0); test: as above
[3] = target: 3×FLAG-BRD2 (human) (UniProt P25440); test: affinity purification with mass spectrometry; 3×FLAG-BET baits in Flp-In T-REx HEK293, anti-FLAG M2 beads, chromatin-optimised lysis (100 mM KCl, sonication, benzonase); cells untreated or with 500 nM JQ1 for 10, 60 or 240 min; SAINT FDR ≤1%
[4] = target: 3×FLAG-BRD3 (human) (UniProt Q15059); test: as above
[5] = target: 3xFLAG-BRD9 267-504 (not stated (UniProt entry of the human protein printed; a mouse Brd9 cDNA is listed)) (UniProt Q3UQU0); test: affinity purification with mass spectrometry; 3xFLAG-tagged BRD9 full length and deletion constructs expressed in HEK293 cells, anti-FLAG M2 beads, endogenous preys, SAINT FDR ≤ 1%

| Substance | binding [3] | binding [4] | other results |
| --- | --- | --- | --- |
| BRD2 (endogenous) (from UniProt P25440 1-801) | – | – | binding [1]: binds; binding [2]: binds |
| BRD9 (endogenous) (from UniProt Q9H8M2 1-597) | binds | – | – |
| CHD8 (from UniProt Q9HCK8 1-2581) | binds | binds | – |
| SMARCC1 (endogenous) (from UniProt Q92922 1-1105) | – | – | binding [5]: binds |
| SMARCD1 (endogenous) (from UniProt Q96GM5 1-515) | – | – | binding [5]: binds |
| WHSC1 (endogenous) (from UniProt O96028 1-1365) | – | binds | – |
| WHSC1L1 (endogenous) (from UniProt Q9BZ95 1-1437) | binds | binds | – |
